Measurements reported in paper PMC7933254.
These are yes or no findings as the source states them, for the method shown. In cells and extracts the contact can be indirect. These calls come from enrichment with a bait or labelling near it, and not all partners need be listed.

Sequences of proteins named here, by UniProt entry; tags and fusion partners are left off.
UniProt Q9HBA0: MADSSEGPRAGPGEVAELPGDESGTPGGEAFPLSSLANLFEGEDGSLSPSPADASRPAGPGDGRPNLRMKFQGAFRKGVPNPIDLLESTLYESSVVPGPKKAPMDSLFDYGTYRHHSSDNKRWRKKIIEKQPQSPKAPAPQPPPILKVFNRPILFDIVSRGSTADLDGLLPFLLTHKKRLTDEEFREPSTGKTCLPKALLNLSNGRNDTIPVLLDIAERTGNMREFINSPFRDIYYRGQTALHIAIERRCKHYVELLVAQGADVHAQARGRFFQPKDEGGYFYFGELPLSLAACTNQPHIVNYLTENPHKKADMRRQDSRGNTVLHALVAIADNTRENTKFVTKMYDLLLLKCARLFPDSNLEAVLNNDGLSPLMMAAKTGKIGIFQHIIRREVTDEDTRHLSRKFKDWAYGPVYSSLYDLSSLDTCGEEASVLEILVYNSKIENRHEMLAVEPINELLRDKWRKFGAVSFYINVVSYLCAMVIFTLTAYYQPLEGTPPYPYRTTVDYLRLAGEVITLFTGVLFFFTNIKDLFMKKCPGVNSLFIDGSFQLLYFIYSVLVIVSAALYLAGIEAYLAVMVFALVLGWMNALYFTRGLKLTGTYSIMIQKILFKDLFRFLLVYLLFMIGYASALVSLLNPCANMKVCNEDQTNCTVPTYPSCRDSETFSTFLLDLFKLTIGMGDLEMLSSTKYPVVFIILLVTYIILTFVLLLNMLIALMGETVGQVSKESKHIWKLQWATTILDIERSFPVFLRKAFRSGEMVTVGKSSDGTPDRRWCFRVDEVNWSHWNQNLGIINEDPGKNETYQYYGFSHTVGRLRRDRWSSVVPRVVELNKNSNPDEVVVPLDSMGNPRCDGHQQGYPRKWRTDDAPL
UniProt P61586: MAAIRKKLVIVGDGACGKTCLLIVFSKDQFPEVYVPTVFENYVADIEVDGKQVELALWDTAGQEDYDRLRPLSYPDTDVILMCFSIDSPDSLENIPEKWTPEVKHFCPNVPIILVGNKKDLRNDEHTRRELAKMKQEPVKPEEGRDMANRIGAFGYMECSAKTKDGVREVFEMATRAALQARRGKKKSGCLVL

Biological target: TRPV4-FLAG (wild type), expressed in HEK293T cells (human) (UniProt Q9HBA0)
Test: affinity purification with mass spectrometry; HEK293T transfected with FLAG-tagged TRPV4 or empty vector; lysate in IP Lysis Buffer (25 mM Tris-HCl pH 7.4, 150 mM NaCl, 1% NP-40, 1 mM EDTA, 5% glycerol); anti-FLAG affinity gel 2 h, elution with FLAG peptide, LC-MS-MS

## endogenous RhoA of HEK293T / T-Rex-TRPV4 cells (from UniProt P61586 1-193)
  binding: binds
